Results from patent US20240325544A1, “CATIONIC LIPID FOR COVALENT MODIFICATION OF PEPTIDES” (PharmalN Corporation, priority 2023, published 2024).
These are yes or no findings as the source states them, for the method shown. Some binding calls cover weakened binding; strength is not graded here. Tags and fused reporters may be left off the sequences shown.

Molecular target: T1, Recombinant human NPRC extracellular domain - human IgG1 Fc fusion (NPRC-Fc) (human) (UniProt P17342)
T1 sequence (looked up): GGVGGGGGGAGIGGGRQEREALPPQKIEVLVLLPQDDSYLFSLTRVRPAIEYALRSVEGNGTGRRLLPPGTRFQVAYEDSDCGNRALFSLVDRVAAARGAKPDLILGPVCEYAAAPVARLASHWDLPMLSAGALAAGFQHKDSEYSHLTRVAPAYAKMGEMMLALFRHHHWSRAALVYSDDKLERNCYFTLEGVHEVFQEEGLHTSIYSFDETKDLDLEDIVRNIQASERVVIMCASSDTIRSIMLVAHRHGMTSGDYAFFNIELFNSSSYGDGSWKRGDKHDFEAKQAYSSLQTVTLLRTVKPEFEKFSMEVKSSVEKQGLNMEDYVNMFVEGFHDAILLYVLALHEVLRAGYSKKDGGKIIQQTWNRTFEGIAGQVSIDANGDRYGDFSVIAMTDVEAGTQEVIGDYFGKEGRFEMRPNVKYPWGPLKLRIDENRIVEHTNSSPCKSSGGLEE
Assay: Fluorescence polarization, 5 nM CNP-F* with 50 nM human NPRC

binding: binds
Binder: GLSKGCFGLKLDRIGSMSGLGC (N-terminal 5(6)-Carboxyfluorescein (F*); disulfide bond formed (cyclic peptide)) [CNP-F* probe (C-type natriuretic peptide bound to 5(6)-Carboxyfluorescein)]
